# The supplement of paper PMC4604168 (melanoma cell lines)
# The other results are listed elsewhere or left out. Single values are uncertain, as repeats are few or missing.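 The apoptosis fraction was the count of cleaved-PARP antibody-stained nuclei relative to all DNA-stained nuclei, imaged in 1,536-well plates. Screening doses were set so most cells survived, and baseline and induced cleaved-PARP levels vary greatly across cell lines.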
# System: MeWo
# Assay: cleaved PARP positive nuclei fraction relative to DMSO control; melanoma cells; higher = more apoptosis
# Conditions: library dose: low library concentration; 72 h
row,Structure (SMILES),cleaved PARP positive nuclei fraction [%]
1,"CO[C@H]1C[C@@H]2CC[C@@H](C)[C@@](O)(O2)C(=O)C(=O)N2CCCC[C@H]2C(=O)O[C@H]([C@H](C)C[C@@H]2CC[C@@H](OCCO)[C@H](OC)C2)CC(=O)[C@H](C)/C=C(\C)[C@@H](O)[C@@H](OC)C(=O)[C@H](C)C[C@H](C)/C=C/C=C/C=C/1C [everolimus] + NCC(=O)Nc1ccc(-n2nc(C(F)(F)F)cc2-c2ccc3c(ccc4ccccc43)c2)cc1 [OSU03012] (first compound 0.02 µM, partner dose 1 µM)",178
2,"CO[C@H]1C[C@@H]2CC[C@@H](C)[C@@](O)(O2)C(=O)C(=O)N2CCCC[C@H]2C(=O)O[C@H]([C@H](C)C[C@@H]2CC[C@@H](OCCO)[C@H](OC)C2)CC(=O)[C@H](C)/C=C(\C)[C@@H](O)[C@@H](OC)C(=O)[C@H](C)C[C@H](C)/C=C/C=C/C=C/1C [everolimus] + NC(=O)Nc1cc(-c2cccc(F)c2)sc1C(=O)N[C@H]1CCCNC1 [AZD7762] (first compound 0.02 µM, partner dose 0.02 µM)",63.7
3,"CO[C@H]1C[C@@H]2CC[C@@H](C)[C@@](O)(O2)C(=O)C(=O)N2CCCC[C@H]2C(=O)O[C@H]([C@H](C)C[C@@H]2CC[C@@H](OCCO)[C@H](OC)C2)CC(=O)[C@H](C)/C=C(\C)[C@@H](O)[C@@H](OC)C(=O)[C@H](C)C[C@H](C)/C=C/C=C/C=C/1C [everolimus] + O=C(Nc1ccccc1)c1cc([N+](=O)[O-])ccc1Cl [GW9662] (first compound 0.02 µM, partner dose 2 µM)",142
4,"CO[C@H]1C[C@@H]2CC[C@@H](C)[C@@](O)(O2)C(=O)C(=O)N2CCCC[C@H]2C(=O)O[C@H]([C@H](C)C[C@@H]2CC[C@@H](OCCO)[C@H](OC)C2)CC(=O)[C@H](C)/C=C(\C)[C@@H](O)[C@@H](OC)C(=O)[C@H](C)C[C@H](C)/C=C/C=C/C=C/1C [everolimus] + O=C1NC(=O)/C(=C/c2ccc(-c3ccc(F)cc3O)o2)S1 [AS252424] (first compound 0.02 µM, partner dose 1 µM)",313
5,"O=C(O)[C@@H]1[O][Sb](=[O])([O][Sb]2(=[O])[O][C@H]([C@H](O)CO)[C@H](O)[C@H](C(=O)O)[O]2)[O][C@H]([C@H](O)CO)[C@@H]1O (some centres undefined) [stibogluconate] + Clc1ccc(Nc2nnc(Cc3ccncc3)c3ccccc23)cc1 [vatalanib] (first compound 2 µM, partner dose 2 µM)",65.2
6,"CO[C@H]1C[C@@H]2CC[C@@H](C)[C@@](O)(O2)C(=O)C(=O)N2CCCC[C@H]2C(=O)O[C@H]([C@H](C)C[C@@H]2CC[C@@H](OCCO)[C@H](OC)C2)CC(=O)[C@H](C)/C=C(\C)[C@@H](O)[C@@H](OC)C(=O)[C@H](C)C[C@H](C)/C=C/C=C/C=C/1C [everolimus] + O=C(CCCCCCC(=O)Nc1ccccc1)NO [vorinostat] (first compound 0.02 µM, partner dose 0.08 µM)",140
7,"CO[C@H]1C[C@@H]2CC[C@@H](C)[C@@](O)(O2)C(=O)C(=O)N2CCCC[C@H]2C(=O)O[C@H]([C@H](C)C[C@@H]2CC[C@@H](OCCO)[C@H](OC)C2)CC(=O)[C@H](C)/C=C(\C)[C@@H](O)[C@@H](OC)C(=O)[C@H](C)C[C@H](C)/C=C/C=C/C=C/1C [everolimus] + Clc1ccc(Nc2nnc(Cc3ccncc3)c3ccccc23)cc1 [vatalanib] (first compound 0.02 µM, partner dose 2 µM)",172
8,"CO[C@H]1C[C@@H]2CC[C@@H](C)[C@@](O)(O2)C(=O)C(=O)N2CCCC[C@H]2C(=O)O[C@H]([C@H](C)C[C@@H]2CC[C@@H](OCCO)[C@H](OC)C2)CC(=O)[C@H](C)/C=C(\C)[C@@H](O)[C@@H](OC)C(=O)[C@H](C)C[C@H](C)/C=C/C=C/C=C/1C [everolimus] + O=C(O)c1ccc2c(c1)nc(Nc1cccc(Cl)c1)c1ccncc12 [CX4945] (first compound 0.02 µM, partner dose 0.4 µM)",172
9,"CO[C@H]1C[C@@H]2CC[C@@H](C)[C@@](O)(O2)C(=O)C(=O)N2CCCC[C@H]2C(=O)O[C@H]([C@H](C)C[C@@H]2CC[C@@H](OCCO)[C@H](OC)C2)CC(=O)[C@H](C)/C=C(\C)[C@@H](O)[C@@H](OC)C(=O)[C@H](C)C[C@H](C)/C=C/C=C/C=C/1C [everolimus] + CNC(=O)c1cc(Oc2ccc(NC(=O)Nc3ccc(Cl)c(C(F)(F)F)c3)cc2)ccn1 [sorafenib] (first compound 0.02 µM, partner dose 0.4 µM)",143
